Experiment [1] has as its target recombinant human neonatal Fc receptor (rhFcRn, R&D systems) (human) (UniProt P55899). The experiment in a line: SPR, rhFcRn immobilised, PG-11 as analyte.
For experiment [2] the target is unchanged. Kind of experiment: SPR steady-state plot, rhFcRn immobilised, PG-11 as analyte.

Sequences of proteins named here, by UniProt entry; tags and fusion partners are left off. A change or cut given only in a name is not applied to a line headed by its entry.
UniProt P55899: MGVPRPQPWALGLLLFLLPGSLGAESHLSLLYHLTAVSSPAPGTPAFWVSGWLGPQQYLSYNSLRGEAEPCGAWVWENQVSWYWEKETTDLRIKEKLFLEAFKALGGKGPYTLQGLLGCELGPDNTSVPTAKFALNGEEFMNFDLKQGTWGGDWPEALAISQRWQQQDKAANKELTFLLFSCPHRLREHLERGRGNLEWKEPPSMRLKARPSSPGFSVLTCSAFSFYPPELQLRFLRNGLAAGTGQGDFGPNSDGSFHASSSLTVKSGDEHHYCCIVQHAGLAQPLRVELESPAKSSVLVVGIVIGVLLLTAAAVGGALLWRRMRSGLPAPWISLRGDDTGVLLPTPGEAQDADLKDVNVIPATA

Binding data for one molecule are collected here from patent publication US20230174617A1.

Results are given in words; binding and its absence hold for the method and conditions named. Binding calls can cover weak binding; strength is not graded here.

B1: PG-11 (GLP-1E-NTIG) (Fc fusion)
chain: HGEGTFTSDVSSYLEGQAAKEFIAWLVKGGPSSGAPPPSGGGGSGGGGSGGGGSEKEKEEQEERTHTCPPCPSHTQPLGVFLFPPKPKDQLMISRTPEVTCVVVDVSQEDPEVQFNWYVDGVEVHNAKTKPREEQFNSTYRVVSVLTVLHQDWLNGKEYKCKVSNKGLPSSIEKTISKAKGQPREPQVYTLPPSQEEMTKNQVSLTCLVKGFYPSDIAVEWESNGQPENNYKTTPPVLDSDGSFFLYSRLTVDKSRWQEGNVFSCSVLHEALHNHYTQKSLSLSLGK
As for B1, the binding result in experiment [1] and in experiment [2] was “binds” in each case.
